# According to US11040937B2, “Amide derivative” (TOHOKU UNIVERSITY, priority 2014, dated 2021):
# For at least one compound, name, drawing or mass did not settle the structure.
# Legend:
# [1] = system: OPN production in A549 cells; test: OPN production in culture supernatant by ELISA, per mg cell protein; format: cell-based, human; details: for amount of the OPN production vs control group: 2 days, significance level less than 1%
# Protocol: Brefelamide (Compound 1) was added to a culture liquid containing cells of human liver cancer-derived cell line HepG2, human non-small cell lung cancer-derived cell line A549, human renal cell carcinoma-derived cell line OUR-10, or human pancreatic cancer-derived cell line QGP-1, and the amount of OPN in the culture supernatant after 2 days was measured using Human Osteopontin Immunoassay kit (R&D systems). The confirmation test was performed by comparison of the OPN amount of Compound 1-treated group with that of DMSO-treated group (control group). In addition, Compounds 6, 19, 26, and 38 which are brefelamide derivatives were added to a culture liquid containing cells of human non-small cell lung cancer-derived cell line A549, and a similar confirmation test to the above-mentioned test was performed.
# Compounds 1, 6, 19, 26, and 38 have also a cell growth inhibitory effect. Thus, in order to properly evaluate the inhibitory effect of the compounds on the OPN production, the 1×CCLR solution used in luciferase assay was added to cells remaining in each well after removal of culture supernatant to prepare a cell lysate, and the amount of protein in the cell lysate was measured using BCA Protein Assay Kit (Thermo Scientific). The influence of Compound 1 on the amount of the OPN production was evaluated by comparison of the amount of OPN per milligram of protein.
# HepG2 cells or A549 cells were suspended in DMEM medium containing 10% FCS and 1% P/S at 4×10^4 cells/mL to obtain a cell suspension, and the cell suspension was dispensed into each well of a 24-well plate in an amount of 500 μL. In order to perform the test in triplicate, 3 wells were prepared for each control group, and 3 wells were prepared for each test compound-treated group at each concentration. The 24-well Plate was incubated in a CO2 incubator (at 37° C., and 3% CO2) for 24±4 hours.
# Compound 1, 6, 19, 26, and 38 which are test compounds were dissolved in DMSO to prepare a 50 mmol/L solution of each compound, and the solutions were stored at −80° C. […]
# human astrocytoma cells = details: by blocking the phosphorylation of ERK through reduction of epidermal growth factor receptor; cited from earlier work
# A549 cells [2] = test: Wound-Healing assay (cell migration capacity); format: cell-based, human; details: 2 days after injury
# A549 cells [3] = test: Matrix-Invasion assay (Matrigel); format: cell-based, human; details: for number of invading cells vs control group: 48±4 hours
# Protocol: As a second test for determining whether or not the physiological function of cells induced by the OPN production is inhibited with a test compound, Matrix-Invasion assay was performed. In this assay, cups (inserts) whose bottom was covered with a membrane having φ8 μm pores coated with collagen or laminin (Matrigel, BD Bioscience) that is an extracellular matrix component and a 24-well plate for inserting the inserts were prepared. The cells suspended in a serum-free medium were placed in the inside insert, and a medium containing a substance inducing metastasis and invasion of cells (i.e. fetal calf serum) was injected into each well of the outside 24-well plate to determine the number of cells passing through the Matrigel-coated membrane of the insert and coming into the outside well.
# Specifically, a fluorescent dye was introduced into A549 cells invading outside the membrane, and then the cells were separated from the membrane to measure their fluorescence intensity. At the same time, a fluorescent dye was introduced into a known number of cells for preparing a calibration curve, and a calibration curve was prepared from their fluorescence intensity. Then, the number of invading cells of a test sample containing an unknown number of cells was determined from the fitted curve.
# Cancer cells produce OPN by the stimulation of fetal calf serum added to the outside medium. When OPN is present in the culture liquid, the cells therein bind to OPN, and thereby Matrix Metalloproteinase (MMP) that is a collagen-degrading enzyme is produced. As a result, Matrigel is dissolved and the migration capacity of the cells is enhanced, and thus the cells transfer to the outside well. […]
# The cells of human non-small cell lung cancer-derived cell line A549 were suspended in DMEM medium containing 10% FCS and 1% P/S at 1.8×10^5 cells/mL to obtain a cell suspension. […] This day was counted as Day 0 of operation. […]
# [4] = system: OPN production in QGP-1 cells; test: OPN production in culture supernatant by ELISA, per mg cell protein; format: cell-based, human; details: 2 days
# [5] = system: OPN production in HepG2 cells; test: as above; format: cell-based, human; details: 2 days
# [6] = system: OPN production in OUR-10 cells; test: as above; format: cell-based, human; details: 2 days
# [7] = 25 μmol/L, significance level less than 1%
compound,measurement,setting,value
"Nc1c(Oc2ccc(O)cc2)cccc1C(=O)CCNC(=O)c1ccc(O)cc1 [Compound 1, N-(3-(2-Amino-3-(4-hydroxyphenoxy)phenyl)-3-oxopropyl)-4-hydroxybenzamide]",amount of the OPN production vs control group,[1]; 12.5 μmol/L,significantly inhibited
same,amount of the OPN production vs control group,[1]; 25 μmol/L,significantly inhibited
same,"OPN production, dependence on concentration",[1]; concentration increased from 12.5 μmol/L to 25 μmol/L,inhibited depending on the concentration
same,cell growth,human astrocytoma cells,inhibits cell growth
same,wound-healing rate vs control group,A549 cells [2]; 12.5 μmol/L,no difference
same,wound-healing rate vs control group,A549 cells [2]; [7],significant difference
same,"number of invading cells, dependence on concentration",A549 cells [3]; 12.5 μmol/L and 25 μmol/L,decreased depending on the concentration
same,number of invading cells vs control group,"A549 cells [3]; 12.5 μmol/L, significance level less than 5%",significantly inhibited
same,number of invading cells vs control group,A549 cells [3]; [7],significantly inhibited
same,amount of the OPN production vs control groups,[4]; 20 μmol/L,no difference
same,amount of the OPN production vs control groups,[4]; 40 μmol/L,significantly inhibited
same,amount of the OPN production vs control group,[5]; 10 μmol/L,no difference
same,amount of the OPN production vs control group,"[5]; 20 μmol/L, significance level less than 1%",significantly inhibited
same,amount of the OPN production vs control groups,[6]; 25 μmol/L,significantly inhibited
same,amount of the OPN production vs control groups,[6]; 50 μmol/L,significantly inhibited
